Results taken from paper doi:10.1101/2022.10.16.512122.
No constants are given. Whether binding was seen depends on the method and setting. In cells and extracts the contact can be indirect. Binding calls can cover weak binding; strength is not graded here.

Protein sequences, listed by entry. Tags and fused reporters are not part of them. Lines headed by an entry give the natural chain unless they say otherwise; changes in a name come on top. Chains listed by the source or under a name are the forms on record and can include a tag or linker.
Orb2A (Q9VSR3, form named): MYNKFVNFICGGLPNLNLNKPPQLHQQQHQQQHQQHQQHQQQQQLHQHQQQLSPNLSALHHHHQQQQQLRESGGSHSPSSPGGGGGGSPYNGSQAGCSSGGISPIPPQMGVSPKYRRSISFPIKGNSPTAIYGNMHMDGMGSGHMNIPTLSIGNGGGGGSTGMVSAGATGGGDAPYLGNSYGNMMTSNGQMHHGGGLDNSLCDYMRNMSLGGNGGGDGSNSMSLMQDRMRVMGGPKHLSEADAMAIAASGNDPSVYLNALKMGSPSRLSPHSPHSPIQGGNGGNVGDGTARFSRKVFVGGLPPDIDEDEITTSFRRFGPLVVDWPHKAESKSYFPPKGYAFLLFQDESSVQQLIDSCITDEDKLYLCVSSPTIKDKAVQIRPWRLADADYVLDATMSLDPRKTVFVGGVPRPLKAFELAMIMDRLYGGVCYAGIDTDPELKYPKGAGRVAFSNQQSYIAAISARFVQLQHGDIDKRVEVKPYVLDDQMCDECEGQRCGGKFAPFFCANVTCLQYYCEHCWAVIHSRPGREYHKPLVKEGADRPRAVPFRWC
UniProt Q9VNW0: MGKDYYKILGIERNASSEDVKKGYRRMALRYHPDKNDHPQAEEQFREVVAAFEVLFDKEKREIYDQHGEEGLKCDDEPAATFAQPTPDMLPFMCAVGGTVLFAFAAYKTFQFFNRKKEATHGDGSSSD
UniProt Q9VFV9: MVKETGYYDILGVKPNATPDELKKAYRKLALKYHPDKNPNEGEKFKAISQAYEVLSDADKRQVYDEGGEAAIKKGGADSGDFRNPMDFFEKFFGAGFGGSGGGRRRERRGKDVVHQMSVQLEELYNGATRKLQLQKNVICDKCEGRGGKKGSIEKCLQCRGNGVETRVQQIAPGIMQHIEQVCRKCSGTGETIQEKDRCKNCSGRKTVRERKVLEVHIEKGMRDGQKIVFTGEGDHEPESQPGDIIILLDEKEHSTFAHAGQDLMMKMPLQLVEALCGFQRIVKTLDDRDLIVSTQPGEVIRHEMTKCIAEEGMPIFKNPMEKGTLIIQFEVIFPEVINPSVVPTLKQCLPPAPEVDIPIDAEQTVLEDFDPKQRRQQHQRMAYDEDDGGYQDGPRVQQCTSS

Biological target: Orb2A (Drosophila) (UniProt Q9VSR3)
Assay: co-IP

Row | Substance | binding
1 | CG7130-HA (from UniProt Q9VNW0) | binds
2 | DroJ2-HA (from UniProt Q9VFV9) | binds
